Earlier results in patent publication US20230219942A1, “COMPOUNDS COMPRISING A THREE RING CORE AS PD-1/PD-L1 BLOCKERS” (RELIVE THERAPEUTICS INC., priority 2020, published 2023).
For at least one compound, name, drawing or mass did not settle the structure.

The chains behind the UniProt entries cited, without tags or fusion partners. Residues count along the entry.
UniProt Q9NZQ7, 19-290: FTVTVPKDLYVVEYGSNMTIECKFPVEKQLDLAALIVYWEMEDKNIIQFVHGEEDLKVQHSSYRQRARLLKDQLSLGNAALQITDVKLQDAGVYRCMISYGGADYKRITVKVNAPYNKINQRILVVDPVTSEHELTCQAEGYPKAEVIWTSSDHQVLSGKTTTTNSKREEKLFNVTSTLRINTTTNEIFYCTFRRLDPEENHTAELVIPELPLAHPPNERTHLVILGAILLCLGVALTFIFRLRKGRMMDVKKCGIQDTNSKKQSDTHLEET

Biological target: PD-1/PD-L1 (Homo sapiens, UniProt Q9NZQ7)
Conditions: Table 11; given in brackets in place of KD/IC50; cited from earlier work

For `CC(O)C(NC(=O)NC(CC(N)=O)c1nc(C(N)CO)no1)C(=O)O` (stereo not shown) [CA-170], the EC50 is listed as “[EC50 = 17] nM”.
